In paper doi:10.1101/2023.02.03.526835 (bioRxiv, 2023):
These are yes or no findings as the source states them, for the method shown. In cells and extracts the contact can be indirect. A yes stands for co-enrichment or nearness to the bait. Other partners may have been found. For some assays here: Sequences can lack the tags named with a protein. One block for each molecule: values may come before it.

By UniProt entry, the sequences of proteins in these tests, tags left out.
UniProt P53224: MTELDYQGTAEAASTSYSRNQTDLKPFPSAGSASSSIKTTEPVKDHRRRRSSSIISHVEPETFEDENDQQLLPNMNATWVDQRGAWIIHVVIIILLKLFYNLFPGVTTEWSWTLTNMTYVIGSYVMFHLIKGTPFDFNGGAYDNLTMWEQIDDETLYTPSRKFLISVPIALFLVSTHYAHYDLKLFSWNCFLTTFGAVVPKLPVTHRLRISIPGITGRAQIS

Columns and labels:
[1] = molecular target: T1, GFP-Sac1 (D. discoideum) (D. discoideum) (UniProt Q55AW9); experiment: affinity purification with mass spectrometry
T1 sequence: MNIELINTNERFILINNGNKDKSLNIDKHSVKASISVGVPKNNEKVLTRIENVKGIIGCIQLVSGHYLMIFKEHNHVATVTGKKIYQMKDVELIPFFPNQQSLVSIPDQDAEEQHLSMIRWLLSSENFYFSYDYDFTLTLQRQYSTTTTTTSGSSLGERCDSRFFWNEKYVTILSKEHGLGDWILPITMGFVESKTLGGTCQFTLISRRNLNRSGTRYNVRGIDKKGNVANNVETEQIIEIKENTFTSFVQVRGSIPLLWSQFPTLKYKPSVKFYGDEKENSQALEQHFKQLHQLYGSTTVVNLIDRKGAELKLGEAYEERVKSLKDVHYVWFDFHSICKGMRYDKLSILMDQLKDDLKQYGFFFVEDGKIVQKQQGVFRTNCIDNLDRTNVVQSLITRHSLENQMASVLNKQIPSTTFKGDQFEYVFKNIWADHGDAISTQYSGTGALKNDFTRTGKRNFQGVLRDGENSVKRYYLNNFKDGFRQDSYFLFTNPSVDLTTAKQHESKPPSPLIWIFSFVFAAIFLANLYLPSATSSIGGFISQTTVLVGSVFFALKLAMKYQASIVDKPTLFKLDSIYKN

[2] = molecular target: T2, ALFA-Sac1 (S. cerevisiae) (S. cerevisiae) (UniProt P32368); experiment: affinity purification with mass spectrometry
T2 sequence: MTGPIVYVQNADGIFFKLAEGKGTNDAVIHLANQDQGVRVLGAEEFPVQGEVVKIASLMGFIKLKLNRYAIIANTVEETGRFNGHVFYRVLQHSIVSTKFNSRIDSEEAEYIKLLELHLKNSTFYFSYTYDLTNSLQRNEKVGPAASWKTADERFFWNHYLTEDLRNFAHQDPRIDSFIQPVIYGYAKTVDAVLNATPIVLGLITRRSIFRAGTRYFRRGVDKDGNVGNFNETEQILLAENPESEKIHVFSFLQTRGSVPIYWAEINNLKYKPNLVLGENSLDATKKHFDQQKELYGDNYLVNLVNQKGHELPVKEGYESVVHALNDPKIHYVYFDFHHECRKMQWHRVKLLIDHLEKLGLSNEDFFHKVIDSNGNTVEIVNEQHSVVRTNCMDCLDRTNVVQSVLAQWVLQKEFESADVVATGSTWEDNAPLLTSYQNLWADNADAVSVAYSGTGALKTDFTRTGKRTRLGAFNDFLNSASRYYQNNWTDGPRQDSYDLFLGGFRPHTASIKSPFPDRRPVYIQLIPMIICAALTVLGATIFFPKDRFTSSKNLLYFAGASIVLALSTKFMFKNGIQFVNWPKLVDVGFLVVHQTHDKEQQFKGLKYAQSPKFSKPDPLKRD

Molecule: Orm1-like protein 2 (D. discoideum)
binding [1]: binds

Molecule: Orm1 protein (in yeast lysate) (from UniProt P53224 1-222)
binding [2]: binds

Further lines, results first:

binding [2]: binds
B1: Lcb2 (in yeast lysate) (enzyme, UniProt P40970 1-561)
chain: MSTPANYTRVPLCEPEELPDDIQKENEYGTLDSPGHLYQVKSRHGKPLPEPVVDTPPYYISLLTYLNYLILIILGHVHDFLGMTFQKNKHLDLLEHDGLAPWFSNFESFYVRRIKMRIDDCFSRPTTGVPGRFIRCIDRISHNINEYFTYSGAVYPCMNLSSYNYLGFAQSKGQCTDAALESVDKYSIQSGGPRAQIGTTDLHIKAEKLVARFIGKEDALVFSMGYGTNANLFNAFLDKKCLVISDELNHTSIRTGVRLSGAAVRTFKHGDMVGLEKLIREQIVLGQPKTNRPWKKILICAEGLFSMEGTLCNLPKLVELKKKYKCYLFIDEAHSIGAMGPTGRGVCEIFGVDPKDVDILMGTFTKSFGAAGGYIAADQWIIDRLRLDLTTVSYSESMPAPVLAQTISSLQTISGEICPGQGTERLQRIAFNSRYLRLALQRLGFIVYGVADSPVIPLLLYCPSKMPAFSRMMLQRRIAVVVVAYPATPLIESRVRFCMSASLTKEDIDYLLRHVSEVGDKLNLKSNSGKSSYDGKRQRWDIEEVIRRTPEDCKDDKYFVN

binding [1]: binds
B2: sptB (D. discoideum SPT subunit) (enzyme, UniProt Q54EX5 1-490)
chain: MEDKEDVENVDDVGYLPILFLYIAYAFIIFNGKLAEFIGKLKGERYLHTPEGYAPLFVEFEYFYQRRMYGRIKDAWDRPINSIAGAWIDVMPRASKHYSQRLELTGGKTIKCLNLGSYNYLGFAQNEGPVADKVIDSIYKYGVYTGSTSAEVGLSEPQRDLENLTARFVGKEDAIVFEMGFATNSGTLPALIGKGGLIISDSLNHASLATGCKNTGCKVKVFRHNDSKHLEEVIRESIIQGQPRTHRPWTMILIIIEGIYSMEGEVANLPEILAIKKKYKCYLYIDEAHSIGALGKTGRGIVDYYGIDPKEIDILMGTYTKSFGAIGGYVASDKSLIDHLRQSSFSQVYANSMSPVCAVQALEALRVIMGEDGTDTGAKKLKQLHDNSNYFREKIREMGFVILGNKDSPVIPLMLFNPAKLSAFSRLCLEKHIAVVVVGYPATPLTEPRTRFCISASHTIEDLDWALRQIDEIGDLITLKFHKGKYLKSK

binding [1]: binds
B3: sptA (D. discoideum SPT subunit) (enzyme, UniProt Q55FL5 1-479)
chain: MFLFDIYNNILYYTKEFIVTSTSPNLFIHGLMAVFIIYLLTKRPFKPRQNDTLTKAEEDELIREWSPIPLTPKSNPLEVLNQTELIIQESEGTHVTINNKKYLNLARSNYLGLINNPEINKISENAIRKYGVGSCGPRGFYGTIDVHLDLEKKTASFMKTPEAVLYSSAYATISSAIPSFSKIGDIIIVDRGVSQPVQVGVSLSRSRIYYFNHNDMDDLQRVLEQTQFKGSKAKIVRKFVVIEGLYYNSGTIAPLPQILKFKEQYKFRLIMDESHSVGVLGSTGRGLTEHYNIDTNLVDILTGSYGNSFSSGGGFCCGSPEVVYHQRLNGVGYVFSASLPPFLACSSTKAIEMLEENPKMLEMLHSNIGELYQGLNKSGALNGLLEITSLPISPVIHLSLLDSKSNKSNRINDELLLQKIVDKAMDYGLLLTRAKYVSAEKFIPKPSIRISVSSNLSSDQIKQSIEIIKKCTSFVLESN
